From the supplement of paper PMC8728848
Some of the results follow.

Columns and labels:
Test in all cases: glycan array binding signal (z-score within array); higher = stronger binding
Details in all cases: glycan notation: IUPAC condensed, linker removed
GlcNAc(b1-3)Gal = molecular target: GlcNAc(b1-3)Gal
Method in brief: (§1)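 The binding signal is a Z-score computed within each array. Data were drawn from 3228 arrays in the Consortium for Functional Glycomics database, restricted to those with a known protein sequence. Scores were averaged over arrays of the same protein sequence at different concentrations or buffers, and over linkers, and negative values can be taken as non-binding.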

[1] = molecular target: GlcNAc(b1-3)Gal(b1-3)GalNAc
Method in brief: as §1

GlcNAc(b1-3)Gal(b1-4)Glc = molecular target: GlcNAc(b1-3)Gal(b1-4)Glc
Method in brief: as §1

[2] = molecular target: GlcNAc(b1-3)Gal(b1-4)GlcNAc
Method in brief: as §1

[3] = molecular target: GlcNAc(b1-3)Gal(b1-4)GlcNAc(b1-2)Man(a1-3)[GlcNAc(b1-3)Gal(b1-4)GlcNAc(b1-2)Man(a1-6)]Man(b1-4)GlcNAc(b1-4)GlcNAc
Method in brief: as §1

[4] = molecular target: GlcNAc(b1-3)Gal(b1-4)GlcNAc(b1-2)Man(a1-3)[GlcNAc(b1-3)Gal(b1-4)GlcNAc(b1-2)Man(a1-6)]Man(b1-4)GlcNAc(b1-4)[Fuc(a1-6)]GlcNAc
Method in brief: as §1

[5] = molecular target: GlcNAc(b1-3)Gal(b1-4)GlcNAc(b1-2)[GlcNAc(b1-3)Gal(b1-4)GlcNAc(b1-6)]Man(a1-6)[GlcNAc(b1-3)Gal(b1-4)GlcNAc(b1-2)Man(a1-3)]Man(b1-4)GlcNAc(b1-4)GlcNAc
Method in brief: as §1

[6] = molecular target: GlcNAc(b1-3)Gal(b1-4)GlcNAc(b1-3)Gal(b1-4)GlcNAc
Method in brief: as §1

[7] = molecular target: GlcNAc(b1-3)Gal(b1-4)GlcNAc(b1-3)Gal(b1-4)GlcNAc(b1-2)Man(a1-3)[GlcNAc(b1-3)Gal(b1-4)GlcNAc(b1-3)Gal(b1-4)GlcNAc(b1-2)Man(a1-6)]Man(b1-4)GlcNAc(b1-4)GlcNAc
Method in brief: as §1

[8] = molecular target: GlcNAc(b1-3)Gal(b1-4)GlcNAc(b1-3)Gal(b1-4)GlcNAc(b1-2)Man(a1-3)[GlcNAc(b1-3)Gal(b1-4)GlcNAc(b1-3)Gal(b1-4)GlcNAc(b1-2)Man(a1-6)]Man(b1-4)GlcNAc(b1-4)[Fuc(a1-6)]GlcNAc
Method in brief: as §1

[9] = molecular target: GlcNAc(b1-3)Gal(b1-4)GlcNAc(b1-3)Gal(b1-4)GlcNAc(b1-2)[GlcNAc(b1-3)Gal(b1-4)GlcNAc(b1-3)Gal(b1-4)GlcNAc(b1-6)]Man(a1-6)[GlcNAc(b1-3)Gal(b1-4)GlcNAc(b1-3)Gal(b1-4)GlcNAc(b1-2)Man(a1-3)]Man(b1-4)GlcNAc(b1-4)[Fuc(a1-6)]GlcNAc
Method in brief: as §1

[10] = molecular target: GlcNAc(b1-3)Gal(b1-4)GlcNAc(b1-3)Gal(b1-4)GlcNAc(b1-3)Gal(b1-4)GlcNAc(b1-2)Man(a1-3)[GlcNAc(b1-3)Gal(b1-4)GlcNAc(b1-3)Gal(b1-4)GlcNAc(b1-3)Gal(b1-4)GlcNAc(b1-2)Man(a1-6)]Man(b1-4)GlcNAc(b1-4)GlcNAc
Method in brief: as §1

[11] = molecular target: GlcNAc(b1-3)Gal(b1-4)GlcNAc(b1-3)Gal(b1-4)GlcNAc(b1-3)Gal(b1-4)GlcNAc(b1-2)Man(a1-3)[GlcNAc(b1-3)Gal(b1-4)GlcNAc(b1-3)Gal(b1-4)GlcNAc(b1-3)Gal(b1-4)GlcNAc(b1-2)Man(a1-6)]Man(b1-4)GlcNAc(b1-4)[Fuc(a1-6)]GlcNAc
Method in brief: as §1

[12] = molecular target: GlcNAc(b1-3)Gal(b1-4)GlcNAc(b1-3)Gal(b1-4)GlcNAc(b1-3)Gal(b1-4)GlcNAc(b1-2)[GlcNAc(b1-3)Gal(b1-4)GlcNAc(b1-3)Gal(b1-4)GlcNAc(b1-3)Gal(b1-4)GlcNAc(b1-6)]Man(a1-6)[GlcNAc(b1-3)Gal(b1-4)GlcNAc(b1-3)Gal(b1-4)GlcNAc(b1-3)Gal(b1-4)GlcNAc(b1-2)Man(a1-3)]Man(b1-4)GlcNAc(b1-4)[Fuc(a1-6)]GlcNAc
Method in brief: as §1

[13] = molecular target: GlcNAc(b1-3)Gal(b1-4)GlcNAc(b1-3)Gal(b1-4)GlcNAc(b1-3)Gal(b1-4)GlcNAc(b1-3)Gal(b1-4)GlcNAc(b1-2)Man(a1-3)[GlcNAc(b1-3)Gal(b1-4)GlcNAc(b1-3)Gal(b1-4)GlcNAc(b1-3)Gal(b1-4)GlcNAc(b1-3)Gal(b1-4)GlcNAc(b1-2)Man(a1-6)]Man(b1-4)GlcNAc(b1-4)GlcNAc
Method in brief: as §1

[14] = molecular target: GlcNAc(b1-3)Gal(b1-4)GlcNAc(b1-3)Gal(b1-4)GlcNAc(b1-3)Gal(b1-4)GlcNAc(b1-3)Gal(b1-4)GlcNAc(b1-2)Man(a1-3)[GlcNAc(b1-3)Gal(b1-4)GlcNAc(b1-3)Gal(b1-4)GlcNAc(b1-3)Gal(b1-4)GlcNAc(b1-3)Gal(b1-4)GlcNAc(b1-2)Man(a1-6)]Man(b1-4)GlcNAc(b1-4)[Fuc(a1-6)]GlcNAc
Method in brief: as §1

[15] = molecular target: GlcNAc(b1-3)Gal(b1-4)GlcNAc(b1-3)Gal(b1-4)GlcNAc(b1-3)Gal(b1-4)GlcNAc(b1-3)Gal(b1-4)GlcNAc(b1-2)[GlcNAc(b1-3)Gal(b1-4)GlcNAc(b1-3)Gal(b1-4)GlcNAc(b1-3)Gal(b1-4)GlcNAc(b1-3)Gal(b1-4)GlcNAc(b1-6)]Man(a1-6)[GlcNAc(b1-3)Gal(b1-4)GlcNAc(b1-3)Gal(b1-4)GlcNAc(b1-3)Gal(b1-4)GlcNAc(b1-3)Gal(b1-4)GlcNAc(b1-2)Man(a1-3)]Man(b1-4)GlcNAc(b1-4)[Fuc(a1-6)]GlcNAc
Method in brief: as §1

[16] = molecular target: GlcNAc(b1-3)Gal(b1-4)GlcNAc(b1-3)Gal(b1-4)GlcNAc(b1-3)GalNAc
Method in brief: as §1

[17] = molecular target: GlcNAc(b1-3)Gal(b1-4)GlcNAc(b1-3)GalNAc
Method in brief: as §1

[18] = molecular target: GlcNAc(b1-3)Gal(b1-4)GlcNAc(b1-3)[GlcNAc(b1-3)Gal(b1-4)GlcNAc(b1-3)]GalNAc
Method in brief: as §1

[19] = molecular target: GlcNAc(b1-3)Gal(b1-4)GlcNAc(b1-6)[Gal(b1-3)]GalNAc
Method in brief: as §1

[20] = molecular target: GlcNAc(b1-3)Gal(b1-4)GlcNAc(b1-6)[GlcNAc(b1-3)Gal(b1-3)]GalNAc
Method in brief: as §1

[21] = molecular target: GlcNAc(b1-3)Gal(b1-4)GlcNAc(b1-6)[GlcNAc(b1-3)]Gal(b1-4)GlcNAc
Method in brief: as §1

B1: Endo180d1-D4 (Homo sapiens), Q9UBG0 (protein)
chain: MGPGRPAPAPWPRHLLRCVLLLGCLHLGRPGAPGDAALPEPNVFLIFSHGLQGCLEAQGGQVRVTPACNTSLPAQRWKWVSRNRLFNLGTMQCLGTGWPGTNTTASLGMYECDREALNLRWHCRTLGDQLSLLLGARTSNISKPGTLERGDQTRSGQWRIYGSEEDLCALPYHEVYTIQGNSHGKPCTIPFKYDNQWFHGCTSTGREDGHLWCATTQDYGKDERWGFCPIKSNDCETFWDKDQLTDSCYQFNFQSTLSWREAWASCEQQGADLLSITEIHEQTYINGLLTGYSSTLWIGLNDLDTSGGWQWSDNSPLKYLNWESDQPDNPSEENCGVIRTESSGGWQNRDCSIALPYVCKKKPNATAEPTPPDRWANVKVECEPSWQPFQGHCYRLQAEKRSWQESKKACLRGGGDLVSIHSMAELEFITKQIKQEVEELWIGLNDLKLQMNFEWSDGSLVSFTHWHPFEPNNFRDSLEDCVTIWGPEGRWNDSPCNQSLPSICKKAGQLSQGAAEEDHGCRKGWTWHSPSCYWLGEDQVTYSEARRLCTDHGSQLVTITNRFEQAFVSSLIYNWEGEYFWTALQDLNSTGSFFWLSGDEVMYTHWNRDQPGYSRGGCVALATGSAMGLWEVKNCTSFRARYICRQSLGTPVTPELPGPDPTPSLTGSCPQGWASDTKLRYCYKVFSSERLQDKKSWVQAQGACQELGAQLLSLASYEEEHFVANMLNKIFGESEPEIHEQHWFWIGLNRRDPRGGQSWRWSDGVGFSYHNFDRSRHDDDDIRGCAVLDLASLQWVAMQCDTQLDWICKIPRGTDVREPDDSPQGRREWLRFQEAEYKFFEHHSTWAQAQRICTWFQAELTSVHSQAELDFLSHNLQKFSRAQEQHWWIGLHTSESDGRFRWTDGSIINFISWAPGKPRPVGKDKKCVYMTASREDWGDQRCLTALPYICKRSNVTKETQPPDLPTTALGGCPSDWIQFLNKCFQVQGQEPQSRVKWSEAQFSCEQQEAQLVTITNPLEQAFITASLPNVTFDLWIGLHASQRDFQWVEQEPLMYANWAPGEPSGPSPAPSGNKPTSCAVVLHSPSAHFTGRWDDRSCTEETHGFICQKGTDPSLSPSPAALPPAPGTELSYLNGTFRLLQKPLRWHDALLLCESHNASLAYVPDPYTQAFLTQAARGLRTPLWIGLAGEEGSRRYSWVSEEPLNYVGWQDGEPQQPGGCTYVDVDGAWRTTSCDTKLQGAVCGVSSGPPPPRRISYHGSCPQGLADSAWIPFREHCYSFHMELLLGHKEARQRCQRAGGAVLSILDEMENVFVWEHLQSYEGQSRGAWLGMNFNPKGGTLVWQDNTAVNYSNWGPPGLGPSMLSHNSCYWIQSNSGLWRPGACTNITMGVVCKLPRAEQSSFSPSALPENPAALVVVLMAVLLLLALLTAALILYRRRQSIERGAFEGARYSRSSSSPTEATEKNILVSDMEMNEQQE
In the case of B1, the “glycan array binding signal (z-score)” value (GlcNAc(b1-3)Gal) is reported as -0.774, the “glycan array binding signal (z-score)” value [1] is reported as 0.761 and the “glycan array binding signal (z-score)” value (GlcNAc(b1-3)Gal(b1-4)Glc) is reported as -0.032. The “glycan array binding signal (z-score)” value [2] was -0.084, the “glycan array binding signal (z-score)” value [3] was -0.555 and the “glycan array binding signal (z-score)” value [4] was -0.315. For the same binder, the “glycan array binding signal (z-score)” value [5] was -0.163, the “glycan array binding signal (z-score)” value [6] was -0.114 and the “glycan array binding signal (z-score)” value [7] was -0.428. The “glycan array binding signal (z-score)” value [8] was 0.617, the “glycan array binding signal (z-score)” value [9] was 4.5 and the “glycan array binding signal (z-score)” value [10] was 0.637. The “glycan array binding signal (z-score)” value [11] was 0.135, the “glycan array binding signal (z-score)” value [12] was 1.02 and the “glycan array binding signal (z-score)” value [13] was -0.28. The “glycan array binding signal (z-score)” value [14] was 0.828, the “glycan array binding signal (z-score)” value [15] was -0.156 and the “glycan array binding signal (z-score)” value [16] was 1.61. The “glycan array binding signal (z-score)” value [17] was 1.1, the “glycan array binding signal (z-score)” value [18] was -0.76 and the “glycan array binding signal (z-score)” value [19] was -0.285. For the same binder, the “glycan array binding signal (z-score)” value [20] was -0.487 and the “glycan array binding signal (z-score)” value [21] was 0.383.
